Measured values taken from patent US12678472B2, “Method for selective recovery of hydrophobic compounds” (priority 2019, dated 2026).

Test: Capture of target molecule from solution by insoluble cross-linked cyclodextrin polymer (batch slurry, supernatant measured after filtration)
Details: for mg recovered: Example 16: 20 mg CBD and 20 mg CBG, 100 mg polymer
Experimental: A standard protocol was followed in all Examples with the variances from the standard protocol as described in each Example. The standard protocol included a plurality of steps. A mass of CBD was dissolved in ethanol to form a stock solution. A reference sample of the stock solution was diluted with ethanol to obtain a target CBD or other target molecule concentration for a reference measurement. A reaction sample was taken from the remaining stock solution. A cross-linked polysaccharide was combined with the reaction sample in a ratio relative to the CBD or other target molecule concentration present in the reaction sample (by mass) as specified in Examples. The cross-linked polymer is HDI-linked cyclodextrin prepared with a ratio of 8:1 HDI to cyclodextrin.
Water is combined with the reaction sample until the reaction sample reaches a target CBD or other target molecule concentration, and a target ethanol to water ratio. The reaction mixture including the water is filtered at a cutoff size of between 75 μm to 4,000 μm aperture size, or exposed to a magnetic field with a neodymium magnet through the wall of a flask, to retrieve the cross-linked polymer bound with CBD or other target molecule concentration. Once retrieved, the cross-linked polymer is flushed with a dissociation solvent for dissolving the target molecule. The dissociation solvent applied in the examples may be methanol, ethanol, isopropanol, a mixtures of aliphatic, aromatic and CO2 fluids, DMSO, butane.
Ten milligrams of CBD were dissolved in a 10 mL mixture of 1:1 ethanol to water to produce a reaction mixture with a CBD concentration of 1 mg/mL. A 1 mL aliquot was then taken from the reaction mixture as a reference sample (t=0). One hundred milligrams of the cross-linked polymer was then combined with the reaction mixture for a polymer to CBD ratio of about 10:1 by mass. The reaction mixture was then stirred at room temperature.
One milliliter aliquots were then taken from the reaction mixture and filtered using pipette filtration at 10 minute intervals over 80 minutes (t=10, t=20, t=30, t=40, t=50, t=60, t=70, t=80, t=90). CBD capture data was obtained from the supernatant fluid of these aliquots after filtration. The data point at t=80 was obtained using syringe filtration, which may have filtered out more of the detectable CBD independently of the insoluble polysaccharide through adsorption. The t=90 time point returns to a level consistent with the time points beginning with t=30. About 15% of the CBD, or 1.7 mg was captured with a 10:1 polymer:CBD ratio.

Row | SMILES | percent of total CBD captured (Example 1: 1 mg/mL CBD in 1:1 ethanol:water, 10:1 polymer:CBD, room temperature) | mg of CBD captured (Example 1: 10 mg CBD, 1 mg/mL in 1:1 ethanol:water, 10:1 polymer:CBD) | mg of CBD captured (Example 2: 68 mg CBD, 1 mg/mL in 1:1 ethanol:water, 683 mg polymer (10:1)) | fold increase in percent CBD retention, 50:1 versus 10:1 (Example 7: 2 mg/mL CBD in 1:1 ethanol:water) | CBD capture (Example 8: ethanol only, 2 mg/mL or 4 mg/mL CBD, 10:1 polymer:CBD) | percent CBD capture (Example 10: 2 mg/mL CBD, water slowly added to 3:7 EtOH:H2O, 10:1 polymer:CBD) | mg CBD captured at plateau (Example 15: 100 mg polymer, 2 mg/mL CBD in 1:1 ethanol:water, 5 to 20 mL) | mg recovered | percent CBD capture (Example 18: 100 mg polymer, 2 mg/mL CBD, 3:7 ethanol:water, all CBD amounts) | mg of CBD captured (Example 21: ethanol extract of hops, 10:1 polymer:CBD) | mg of CBD captured (Example 21: pure ethanol, 10:1 polymer:CBD)
1 | C=C(C)[C@@H]1CCC(C)=C[C@H]1c1c(O)cc(CCCCC)cc1O [CBD, cannabidiol] | About 15% | 1.7 mg | 11.6 mg | 2.3 fold | no significant capture | 98% | 3.2 mg | 3.4 mg | over 98% | 9.6 mg | about 9.8 mg
2 | CCCCCc1cc(O)c(C/C=C(\C)CCC=C(C)C)c(O)c1 [CBG, cannabigerol] | – | – | – | – | – | – | – | 4.8 mg | – | – | –
